Results from patent US11959929B2, “Method of quantifying lysergic acid diethylamide (LSD) and 2,3-dihydro-3-hydroxy-2-oxo lysergide (O-H-LSD) in human plasma” (Universitatsspital Basel, priority 2020, dated 2024).
Some results were stated once for a whole list of compounds, not compound by compound. At least one compound was matched to its structure with a doubt left.

Test: Freeze/thaw stability tests in human plasma (three cycles, about −20° C.)
Assay type: physicochemical
Details: thawed and re-frozen for three cycles, kept at room temperature for 8 hours
Source text: Each analyte had to be stable in human plasma for at least three freeze-thaw cycles (for repeated sample preparations) and at ambient temperature for at least eight hours (maximal duration of sample preparation). Measured samples should be stable for a second injection when the first analytical run was not valid. The analytes had to be stable in the matrix at the intended storage temperatures and study duration.
An analyte was considered stable at one of the above tests when no increase or decrease of the analyte concentration of more than 15% for the mean of at least three analyzed QC samples at low, medium and at high concentration was observed.
Seven of each LLOQ, QCLOW, QCMID, QCHIGH, and ULOQ sample in human plasma were stored at about −20° C. for at least 24 hours and thawed unassisted at ambient temperature. When completely thawed, the samples were refrozen for at least 12 hours under the same conditions. The freeze-thaw cycle was repeated two more times. After the third cycle the samples were worked up and analyzed. The concentrations in the frozen and thawed samples were compared with freshly processed QC samples. Concentrations were calculated based on two freshly prepared CALs measured at the beginning and the other at the end of the validation run.

Row | Structure (SMILES) | Degradation of plasma samples (summary statement)
1 | CCN(CC)C(=O)[C@@H]1C=C2c3cccc4[nH]cc(c34)C[C@H]2N(C)C1 [LSD, Lysergic acid diethylamide] | ≤ 8.83%
2 | CCN(CC)C(=O)C1C=C2c3cccc4c3C(O)(C[C@H]2N(C)C1)C(=O)N4 (some centres unmarked) [O-H-LSD, 2,3-dihydro-3-hydroxy-2-oxo lysergide] | ≤ 8.83%
